Step yield data for 3 substances are collected here from US4086221A (Toyo Jozo Kabushiki Kaisha, priority 1975, dated 1978).

The star is where a group is joined. Tos = Cc1ccc(S(=O)(=O)*)cc1; Boc = CC(C)(C)OC(=O)*; OBn = c1ccc(CO*)cc1; Bn = c1ccc(C*)cc1

The data set is described as follows: general procedure: solution-phase peptide synthesis; WSC/HOBT; DCC/HOSU; DCC/HOBT; active esters (OSU, ONP); azide method. The settings on record: coupling step.

“AOC-Arg(Tos)-Thr(Bzl)-Asp(OBzl)-Val-Gly-Ala-Gly-Thr(Bzl)-Pro-Nh2” yielded a step yield of 82.7%.
The substance Boc-T(Bn)D(OBn)VGAGT(Bn)P-NH2 gave a step yield of 77.1%.
For “Boc-QT(Bn)Y(Bn)PR(Tos)T(Bn)D(OBn)VGAGT(Bn)P-NH2” the value was 82.9%.
